# Percent effect of library compounds

Results are given as percent effect.
How 0% and 100% were set is not recorded. Most values in the screen are low, and negative values occur.
This is an unselected part of the compounds tested.

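Whole-parasite assay of Trypanosoma brucei over 72 hours; the read-out is not stated. Tested at 30 µM. Direction is inferred from retests: higher values go with stronger inhibition. Values scatter widely below zero; nearly all retest evidence comes from the higher of the two concentrations used. Size under these conditions: about 64,000 compounds, about 940 of them at 50% or above in at least one test.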

SMILES	effect
C[C@@H]1CN(C(=O)CCc2cnn(C)c2)CC[C@@]1(O)C1CCOCC1	-20.36%
CCc1n[nH]c(C2CN(CC(=O)N(C)Cc3ccco3)CCO2)n1 (centres unmarked)	3.566%
Cn1cc(CN2CCc3ncnc(N4CCCC4)c3CC2)cn1	-26.99%
CC1CN(C(=O)NCc2cnn(-c3ccc(F)cc3F)c2)CCO1 (centres unmarked)	-14.04%
CCc1csc(CNc2cc(C)nc(-c3cccnc3)n2)n1	-4.839%
COc1ccc(OC)c(C(=O)N2CCCCC2Cn2cccn2)c1 (centres unmarked)	-14.39%
Cc1ccc(N2CCCc3sc(C(=O)NCc4ccncc4)nc32)nn1	-13.89%
CC(=O)N1CCC(N2CCC(c3nc(C)cc(C)n3)C2)CC1.O=CO (centres unmarked)	-13.11%
CNC(=O)c1nc(CN2CCOC(CCCC(C)C)C2)no1 (centres unmarked)	-14.22%
O=C(O)c1cnc(N2CC[C@H](N3CCOCC3)[C@H](CCCO)C2)c(Cl)c1	2.107%
[H][C@@]12CS(=O)(=O)C[C@]1([H])N(C(=O)c1cc(C(C)C)no1)CCN2C(C)=O	5.512%
Cc1cc(C)cc(N2CC(c3nnc(N)s3)CC2=O)c1 (centres unmarked)	-1.312%
CCCN1CCc2nc(SCc3ccccc3)[nH]c(=O)c2C1	-30.73%
Cc1noc(C)c1C(=O)N1CCSc2ccc(Cl)cc21	-31.04%
CCOc1ccc(Cl)cc1C(C(=O)O)N1CCC(CO)CC1 (centres unmarked)	-4.707%
CN1CC=C(c2noc(CCC(=O)N3CCc4ccccc4C3)n2)CC1	-10.55%
CCS(=O)(=O)CCN1CCCC1c1noc(C2CC2)n1 (centres unmarked)	-94.49%
NC(=O)c1ccc(OCC(=O)N2CCCC2c2ccc[nH]2)cc1 (centres unmarked)	-31.68%
Cn1ccc(C(=O)N2CCN(CCc3ccccc3)CC2)cc1=O	12.54%
CC(OCC1CC1)C(=O)N1CCCN(Cc2cnn(C)c2)CC1 (centres unmarked)	4.273%
COc1cccc(CNc2c(C)cnc3c2c(=O)n(C)c(=O)n3C)c1	-12.47%
COc1ccc(C2CC(=O)Nc3nc(N4CCOCC4)sc32)cc1 (centres unmarked)	-16.68%
COc1ccc2c(c1)NC(=O)C2OC(=O)Cc1ccccc1C (centres unmarked)	8.599%
O=C(C[S+]([O-])Cc1c(F)cccc1Cl)N1CCc2sccc2C1 (centres unmarked)	-21.49%
Cc1cnn(CC2CCCN2C(=O)CCc2c(C)noc2Cl)c1 (centres unmarked)	21.07%
CC(C)Oc1cccc2c1c(NC(=O)CN(C)C)nn2CC(F)(F)F	10.54%
O=C(O)C(F)(F)F.c1ccn(Cc2nnc3n2CCCN(Cc2ccoc2)C3)c1	-23.76%
Cc1cnc(CN(C)C2CCN(Cc3cnc(C)s3)C2)o1 (centres unmarked)	-10.99%
CC(C(=O)NCCN1CCN(C)CC1)n1cncn1 (centres unmarked)	7.31%
COCCN1CCC(CNC(=O)C2(c3ccccc3)CCC2)C1 (centres unmarked)	-7.306%
Cc1ccc(OCC(O)CN(C)CC(=O)Nc2cc(C)on2)c(C)c1 (centres unmarked)	-23%
Cc1ccc(F)c(NS(=O)(=O)c2cc3c(c(C(=O)O)c2)OCCO3)c1	-15.67%
CNS(=O)(=O)CCNc1cc(C)nc2cc(C)nn12	5.528%
N#Cc1ncn(CCS(=O)(=O)c2ccc(Br)cc2)n1	-56.92%
COc1cccc(CNCc2ccc(F)c(Cl)c2)c1O	-34.38%
CCn1cnnc1C1CCN(C(=O)Cc2ccc(OC)c(F)c2)CC1	-51.88%
[H][C@@]12CCN(Cc3nccs3)C[C@]1(c1nnc(C)o1)CCO2	2.671%
Cc1nc(C)n(CC2CCCN2CC(=O)Nc2ccnn2C(C)C)n1 (centres unmarked)	-40.82%
CN(C)C(CNC(=O)CCNC(=O)OCC(F)(F)F)c1ccsc1 (centres unmarked)	-43.09%
Cc1n[nH]c(C2CN(C(=O)c3ccc(=O)n(C)c3)CCO2)n1 (centres unmarked)	-57.21%
c1ccc(Cn2cc(CNc3ncnc4c3CCNCC4)cn2)cc1	-21.34%
[H][C@@]12CS(=O)(=O)C[C@]1([H])N(Cc1nc(C)n[nH]1)CCN2Cc1ccccc1	-3.751%
CC(C)OC(=O)CC(NC(=O)CCn1cccn1)c1ccccc1 (centres unmarked)	-49.85%
CCc1ccc(-c2nn3c(nc2=O)-c2ccccc2NC3C(=O)O)cc1 (centres unmarked)	-7.339%
Cc1cc(C)n(CC2CCCN2C(=O)c2ccc3c(c2)OCO3)n1 (centres unmarked)	9.938%
COc1ccsc1C(=O)NC1CCN(c2ccc(C#N)cc2)CC1	6.653%
CCNc1c(NC(=O)NC(C)C)c(=O)oc2ccccc12	-9.01%
COc1cccc(CCNC(=O)c2ccc(=O)n(C)c2)c1	-4.277%
CCC(=O)N1CCC2(CC1)CC(Oc1ccccc1)CO2 (centres unmarked)	-12.28%
O=C(CC1CCc2ccccc21)NCCSc1ccccn1 (centres unmarked)	-85.07%
Cc1nc(N2CCCC2)nc2c1CN(C(=O)N(C)C)CC2	-71.36%
CS(=O)(=O)N1CCCC1Cn1cccn1 (centres unmarked)	-55.07%
Cc1cc(C)n(CCCN(C)c2cc(N(C)C)ncn2)n1	-52.96%
O=S(=O)(Cc1ccccc1)NCC1CCN(c2cnccn2)CC1	12.21%
CN1CCCC1c1ccc(C(=O)Nc2c3c(nn2C)CCC3)s1 (centres unmarked)	-32.23%
[H][C@]12CN(S(=O)(=O)c3ccc(C(=O)NCc4ccc(C)o4)cc3)[C@]([H])(CN1)C2	-30.65%
CC(=O)NC(C)CC(=O)NCc1cccnc1Oc1ccccc1C (centres unmarked)	-25.11%
CCc1nnc(C2Cc3ccccc3CN2Cc2ncc(Cl)n2C)o1 (centres unmarked)	-25.9%
O=C(O)C(F)(F)F.[H][C@]12CN(CC(C)C)C[C@@]1([H])S(=O)(=O)CC[C@@H]2C(=O)NCC(C)C	-19.44%
CCOc1ccc(NC(C)=O)cc1S(=O)(=O)Nc1nccs1	-43.51%
CCN1CCCc2cc(CN3CCc4c(nc(C)[nH]c4=O)C3)ccc21	-8.44%
O=C(O)C(F)(F)F.[H][C@@]12CNC[C@]1(C(=O)O)CN(C(=O)c1ccccc1-c1ccccc1)C2	-38.82%
c1cnnc(N2CCCC2CNCc2nc(C3CC3)no2)c1 (centres unmarked)	-20.07%
Nc1nc2c(c(NCC(c3cccnc3)N3CCOCC3)n1)CCCC2 (centres unmarked)	9.117%
Cc1nc(CN2CCCC(NCCc3ccccc3Cl)C2)no1 (centres unmarked)	-15.26%
O=C(c1ccc(=O)[nH]n1)N1CC(c2nc(Cc3ccccc3)no2)C1	-87.19%
CS(=O)(=O)N1CCCC12CCN(Cc1nccs1)CC2.O=C(O)C(F)(F)F	-28.07%
CC(=O)CSc1sc2c(O)cc(=O)[nH]c2c1C(N)=O	-29.94%
CC(C)=CCN1CCN(Cc2cc(C)c(O)c(C)c2)CC1CCO (centres unmarked)	-65.59%
CCCc1nc(CNC(=O)Cc2cc(C)no2)cs1	16.97%
O=C(CN1CCCNC1=O)Nc1ccccc1SC(F)(F)F	-5.232%
Cn1cc(C(=O)N2CCOc3ccccc32)ccc1=O	-4.609%
CCOc1cc(CNCCCn2ccnc2)cc(Cl)c1OC	-59.63%
CCS(=O)(=O)N1CCC2(CC1)CC1(CCN(CCOC)CC1)C(=O)N2C.O=C(O)C(F)(F)F	-52.15%
CN(Cc1nnc2ccccn12)C(=O)CCNC(=O)C(C)(C)C	-32.01%
O=C(NCc1ccccc1CN1CCC(O)CC1)Nc1cccnc1	-3.079%
[H][C@]12CN(CC3CC3)C(=O)[C@@]1([H])CN(S(=O)(=O)c1cccs1)C2	-5.332%
O=C(COc1ccc(-n2cccn2)nn1)NC1CCCCC1	-1.818%
CCc1cccc2cc(CNCCOC)c(=O)[nH]c12	-10.09%
Cc1nc(C)n(CC2CN(c3ncccc3C#N)CCO2)n1 (centres unmarked)	-12.38%
[H][C@@]12CCCN1C[C@H](Cc1ccccc1)N(Cc1cnn(CCC)c1C)C2	-5.068%
N#Cc1ccc(CNC(=O)NC2CCCN(c3ncccn3)C2)cc1 (centres unmarked)	6.887%
CC(=O)NCC(=O)N1Cc2nccn2CC(CN(C)C(C)C)C1.O=C(O)C(F)(F)F (centres unmarked)	-22.62%
O=C(O)c1ccccc1-c1ccc(CNC(=O)C2CCOCC2)cc1	16.44%

The first 11 entries again:

{"smiles": "C[C@@H]1CN(C(=O)CCc2cnn(C)c2)CC[C@@]1(O)C1CCOCC1", "effect": -20.36}
{"smiles": "CCc1n[nH]c(C2CN(CC(=O)N(C)Cc3ccco3)CCO2)n1", "stereo": "centres unmarked", "effect": 3.566}
{"smiles": "Cn1cc(CN2CCc3ncnc(N4CCCC4)c3CC2)cn1", "effect": -26.99}
{"smiles": "CC1CN(C(=O)NCc2cnn(-c3ccc(F)cc3F)c2)CCO1", "stereo": "centres unmarked", "effect": -14.04}
{"smiles": "CCc1csc(CNc2cc(C)nc(-c3cccnc3)n2)n1", "effect": -4.839}
{"smiles": "COc1ccc(OC)c(C(=O)N2CCCCC2Cn2cccn2)c1", "stereo": "centres unmarked", "effect": -14.39}
{"smiles": "Cc1ccc(N2CCCc3sc(C(=O)NCc4ccncc4)nc32)nn1", "effect": -13.89}
{"smiles": "CC(=O)N1CCC(N2CCC(c3nc(C)cc(C)n3)C2)CC1.O=CO", "stereo": "centres unmarked", "effect": -13.11}
{"smiles": "CNC(=O)c1nc(CN2CCOC(CCCC(C)C)C2)no1", "stereo": "centres unmarked", "effect": -14.22}
{"smiles": "O=C(O)c1cnc(N2CC[C@H](N3CCOCC3)[C@H](CCCO)C2)c(Cl)c1", "effect": 2.107}
{"smiles": "[H][C@@]12CS(=O)(=O)C[C@]1([H])N(C(=O)c1cc(C(C)C)no1)CCN2C(C)=O", "effect": 5.512}

Data taken from ChEMBL document CHEMBL3988442, “University of Dundee, Small-Polar-MMV Screening Library” (2021).